The values that follow come from article PMC7793297.

The chains behind the UniProt entries cited, without tags or fusion partners.
UniProt Q64131, whole entry: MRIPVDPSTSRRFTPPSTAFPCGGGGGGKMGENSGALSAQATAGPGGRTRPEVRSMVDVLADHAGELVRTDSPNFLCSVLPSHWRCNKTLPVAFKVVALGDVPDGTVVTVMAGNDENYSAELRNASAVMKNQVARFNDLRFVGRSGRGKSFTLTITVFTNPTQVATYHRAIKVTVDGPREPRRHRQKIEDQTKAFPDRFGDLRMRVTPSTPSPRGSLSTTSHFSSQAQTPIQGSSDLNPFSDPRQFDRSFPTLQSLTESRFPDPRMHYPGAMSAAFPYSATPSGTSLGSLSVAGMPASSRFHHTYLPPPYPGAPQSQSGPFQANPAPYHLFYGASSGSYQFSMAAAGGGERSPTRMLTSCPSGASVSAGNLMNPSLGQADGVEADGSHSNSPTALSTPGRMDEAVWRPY
UniProt Q03347, whole entry: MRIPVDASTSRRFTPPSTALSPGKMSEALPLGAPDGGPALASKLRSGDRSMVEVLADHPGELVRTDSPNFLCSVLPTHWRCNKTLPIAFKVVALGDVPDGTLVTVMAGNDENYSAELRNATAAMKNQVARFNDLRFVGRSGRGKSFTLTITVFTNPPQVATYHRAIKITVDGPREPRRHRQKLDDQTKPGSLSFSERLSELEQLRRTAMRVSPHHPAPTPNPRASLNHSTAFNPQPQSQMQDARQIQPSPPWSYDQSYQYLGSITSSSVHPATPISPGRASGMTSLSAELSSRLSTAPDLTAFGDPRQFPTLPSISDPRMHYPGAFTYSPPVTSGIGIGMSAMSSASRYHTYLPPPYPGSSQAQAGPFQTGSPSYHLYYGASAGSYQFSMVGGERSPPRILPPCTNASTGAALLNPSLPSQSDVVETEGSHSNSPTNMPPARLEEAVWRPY
UniProt Q01196, whole entry: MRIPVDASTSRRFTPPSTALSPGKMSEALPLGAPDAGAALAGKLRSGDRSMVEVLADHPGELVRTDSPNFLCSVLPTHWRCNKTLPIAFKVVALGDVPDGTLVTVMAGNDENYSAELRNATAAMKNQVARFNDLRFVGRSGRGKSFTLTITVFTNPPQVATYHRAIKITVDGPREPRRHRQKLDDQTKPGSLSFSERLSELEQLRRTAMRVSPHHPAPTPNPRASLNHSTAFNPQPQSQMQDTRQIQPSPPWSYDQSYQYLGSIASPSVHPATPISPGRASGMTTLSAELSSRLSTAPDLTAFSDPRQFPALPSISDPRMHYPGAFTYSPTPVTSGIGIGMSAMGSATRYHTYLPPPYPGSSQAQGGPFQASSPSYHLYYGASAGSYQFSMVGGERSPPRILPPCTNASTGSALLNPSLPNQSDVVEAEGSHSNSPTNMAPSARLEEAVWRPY
UniProt Q13761, whole entry: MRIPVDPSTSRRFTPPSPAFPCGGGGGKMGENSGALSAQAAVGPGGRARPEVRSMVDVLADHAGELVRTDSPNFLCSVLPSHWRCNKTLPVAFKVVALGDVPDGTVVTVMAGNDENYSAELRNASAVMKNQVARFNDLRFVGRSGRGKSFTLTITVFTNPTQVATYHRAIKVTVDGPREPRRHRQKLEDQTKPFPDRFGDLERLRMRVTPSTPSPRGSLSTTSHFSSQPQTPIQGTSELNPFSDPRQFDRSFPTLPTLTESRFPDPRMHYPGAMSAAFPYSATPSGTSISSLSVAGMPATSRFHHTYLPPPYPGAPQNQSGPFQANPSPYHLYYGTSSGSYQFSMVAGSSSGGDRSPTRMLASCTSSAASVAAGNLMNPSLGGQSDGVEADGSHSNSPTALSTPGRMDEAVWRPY

For at least one entry, the source does not settle the construct or the ends of the probe. Where cells or extracts were used, other partners may take part. For part of these data: No signal at the amounts used counts as a negative. For part of these data: At least one verdict rests on a figure or table, not on a statement of the authors.

Series [1] concerns the target Runx3 (Mus musculus (BALB/c BMDC)) (UniProt Q64131). In words: EMSA supershift. The following applies: LPS, TNFa or SAG treated cells; EMSA with nuclear extracts and 32P-labeled probes, 4 ug antibody for supershift; pH and temperature not stated (cited protocols); protein in an extract; label: 32P. (In general: Mobility shift assays separate free from complexed probe on a gel.)

Series [2] addresses Runx1 (Mus musculus (BALB/c BMDC)) (UniProt Q03347). In words: EMSA supershift. The note with it: LPS, TNFa or SAG treated cells; EMSA with nuclear extracts and 32P-labeled probes, 4 ug antibody for supershift; pH and temperature not stated (cited protocols); protein in an extract; label: 32P.
The target of series [3] is Runx3 (Mus musculus (BALB/c BMDC)) (UniProt Q64131). In words: EMSA. The following applies: LPS or TNFa treated cells; EMSA with nuclear extracts and 32P-labeled probes, 4 ug antibody for supershift; pH and temperature not stated (cited protocols); protein in an extract; label: 32P.
For series [4], the target named is Runx1 (Mus musculus (BALB/c BMDC)) (UniProt Q03347). In words: EMSA. The note with it: LPS or TNFa treated cells; EMSA with nuclear extracts and 32P-labeled probes, 4 ug antibody for supershift; pH and temperature not stated (cited protocols); protein in an extract; label: 32P.
Series [5] deals with Runx1 (Homo sapiens (monocyte-derived DC)) (UniProt Q01196). The series is described as follows: EMSA supershift. The following applies: SAG treated cells; EMSA with nuclear extracts and 32P-labeled probes, 4 ug antibody for supershift; pH and temperature not stated (cited protocols); protein in an extract; label: 32P.
In series [6] the target is Runx3 (Homo sapiens (monocyte-derived DC)) (UniProt Q13761). The series is described as follows: EMSA supershift. The following applies: SAG treated cells; EMSA with nuclear extracts and 32P-labeled probes, 4 ug antibody for supershift; pH and temperature not stated (cited protocols); protein in an extract; label: 32P.

On to “TTTTCTGACTTTGCGGTGACACTGGGGACTTCCTTAGACCTCTCT (double strand) [Pr2]”, for which the binding result in series [1] and in series [2] was “binds” throughout.

With “TGGCCCTTCAGCTGTGGTCTTTCCCGTTTTCTGACTT (double strand) [Pr1]”, the binding result in series [1] and in series [2] was “binds” throughout.

Turning to “TTTTCTGACTTGAATTCGACACTGGGGACTTCCTTAGACCTCTCT (double strand) [Mut-Pr2]”, the binding result in series [3] and in series [4] was “no binding” each time.

Take “TTTTCTGCGTGGTGGTGTGGGGGGAAC (double strand) [Pr4]”: the binding result in series [5] and in series [6] was “binds” each time.

With “CCTCCCCATACCCCAGCTGTGGCCTTCCCG (double strand) [Pr3]”, the binding result in series [5] and in series [6] was “binds” each time.

“TGGCCCTTCAGCGAATTCCTTTCCCGTTTTCTGACTT (double strand) [Mut-Pr1]”: the binding result in series [3] and in series [4] was “no binding” each time.
